Assay results: the supplement of paper PMC10849652
The other results are listed elsewhere or left out.

Sequences of proteins named here, by UniProt entry; tags and fusion partners are left off. A change or cut given only in a name is not applied to a line headed by its entry.
UniProt Q9BSA9: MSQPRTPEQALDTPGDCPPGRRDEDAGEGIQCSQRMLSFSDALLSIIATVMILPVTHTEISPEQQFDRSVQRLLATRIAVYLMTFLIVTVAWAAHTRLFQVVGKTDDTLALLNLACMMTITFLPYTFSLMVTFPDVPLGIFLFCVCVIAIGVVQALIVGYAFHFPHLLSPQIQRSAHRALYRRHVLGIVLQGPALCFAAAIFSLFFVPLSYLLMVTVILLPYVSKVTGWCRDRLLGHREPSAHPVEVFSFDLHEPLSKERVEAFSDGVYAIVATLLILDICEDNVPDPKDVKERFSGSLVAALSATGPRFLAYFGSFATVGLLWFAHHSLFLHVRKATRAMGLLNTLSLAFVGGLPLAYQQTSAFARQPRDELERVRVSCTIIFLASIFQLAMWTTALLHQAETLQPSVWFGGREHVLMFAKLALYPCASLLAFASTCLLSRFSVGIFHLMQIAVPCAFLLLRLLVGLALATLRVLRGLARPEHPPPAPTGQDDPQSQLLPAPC
UniProt Q96IK0: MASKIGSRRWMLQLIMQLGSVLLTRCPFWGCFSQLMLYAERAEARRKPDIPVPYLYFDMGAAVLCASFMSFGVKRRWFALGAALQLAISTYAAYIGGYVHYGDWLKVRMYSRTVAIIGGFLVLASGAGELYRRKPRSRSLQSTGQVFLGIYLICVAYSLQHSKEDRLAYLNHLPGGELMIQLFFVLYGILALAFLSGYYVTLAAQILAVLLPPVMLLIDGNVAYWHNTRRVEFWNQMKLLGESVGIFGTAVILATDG
UniProt Q96I45: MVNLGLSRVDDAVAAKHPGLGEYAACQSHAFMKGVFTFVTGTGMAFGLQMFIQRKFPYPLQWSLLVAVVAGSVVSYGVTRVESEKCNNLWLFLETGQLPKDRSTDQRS
UniProt Q8WUH2: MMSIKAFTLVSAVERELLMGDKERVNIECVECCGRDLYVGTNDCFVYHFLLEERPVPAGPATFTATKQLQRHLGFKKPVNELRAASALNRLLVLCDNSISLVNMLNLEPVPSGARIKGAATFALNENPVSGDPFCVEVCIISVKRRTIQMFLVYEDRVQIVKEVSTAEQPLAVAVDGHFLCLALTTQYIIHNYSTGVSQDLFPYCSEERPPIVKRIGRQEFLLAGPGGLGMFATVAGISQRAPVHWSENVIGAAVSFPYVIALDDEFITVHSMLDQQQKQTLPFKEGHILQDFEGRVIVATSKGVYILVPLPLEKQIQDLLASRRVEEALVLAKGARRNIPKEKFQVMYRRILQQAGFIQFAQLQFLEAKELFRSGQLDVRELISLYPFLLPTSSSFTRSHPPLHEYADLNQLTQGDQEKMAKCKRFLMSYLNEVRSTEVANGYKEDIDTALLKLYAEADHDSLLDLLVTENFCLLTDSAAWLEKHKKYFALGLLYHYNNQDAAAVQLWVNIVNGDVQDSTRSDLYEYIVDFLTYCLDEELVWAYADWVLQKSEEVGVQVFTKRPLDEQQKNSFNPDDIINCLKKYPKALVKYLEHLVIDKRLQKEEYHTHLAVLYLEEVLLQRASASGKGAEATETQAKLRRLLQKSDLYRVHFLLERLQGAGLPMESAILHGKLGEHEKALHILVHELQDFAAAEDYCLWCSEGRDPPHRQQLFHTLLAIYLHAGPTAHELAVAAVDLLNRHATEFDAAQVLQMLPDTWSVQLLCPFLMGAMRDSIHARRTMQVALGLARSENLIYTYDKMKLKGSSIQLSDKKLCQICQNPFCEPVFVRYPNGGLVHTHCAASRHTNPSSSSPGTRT
UniProt Q9BVV7: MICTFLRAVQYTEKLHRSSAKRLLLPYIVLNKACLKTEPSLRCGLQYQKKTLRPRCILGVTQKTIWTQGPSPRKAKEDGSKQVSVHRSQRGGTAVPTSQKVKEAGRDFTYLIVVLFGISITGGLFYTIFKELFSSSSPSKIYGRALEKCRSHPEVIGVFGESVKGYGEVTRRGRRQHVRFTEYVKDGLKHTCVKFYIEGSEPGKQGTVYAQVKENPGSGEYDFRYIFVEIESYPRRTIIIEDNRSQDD
UniProt Q04726: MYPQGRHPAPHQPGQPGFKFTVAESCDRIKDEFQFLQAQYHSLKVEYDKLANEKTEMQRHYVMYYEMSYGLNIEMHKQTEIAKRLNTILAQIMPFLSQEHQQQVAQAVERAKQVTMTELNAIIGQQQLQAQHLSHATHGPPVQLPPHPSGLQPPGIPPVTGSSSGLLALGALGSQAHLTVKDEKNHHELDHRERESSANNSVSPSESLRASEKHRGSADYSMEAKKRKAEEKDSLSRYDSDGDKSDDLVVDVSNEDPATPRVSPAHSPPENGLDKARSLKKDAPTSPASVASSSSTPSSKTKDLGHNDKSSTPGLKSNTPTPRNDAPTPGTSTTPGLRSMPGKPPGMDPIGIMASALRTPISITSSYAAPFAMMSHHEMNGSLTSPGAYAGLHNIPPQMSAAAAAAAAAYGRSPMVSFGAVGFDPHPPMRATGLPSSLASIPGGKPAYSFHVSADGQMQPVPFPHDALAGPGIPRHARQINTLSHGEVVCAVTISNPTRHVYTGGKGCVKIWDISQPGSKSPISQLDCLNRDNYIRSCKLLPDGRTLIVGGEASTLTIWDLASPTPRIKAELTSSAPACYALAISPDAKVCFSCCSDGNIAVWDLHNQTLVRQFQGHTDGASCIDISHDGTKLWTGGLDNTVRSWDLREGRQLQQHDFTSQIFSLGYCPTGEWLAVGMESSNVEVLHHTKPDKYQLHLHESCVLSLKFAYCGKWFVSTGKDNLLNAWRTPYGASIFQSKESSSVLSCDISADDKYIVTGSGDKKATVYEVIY
UniProt Q86WV6: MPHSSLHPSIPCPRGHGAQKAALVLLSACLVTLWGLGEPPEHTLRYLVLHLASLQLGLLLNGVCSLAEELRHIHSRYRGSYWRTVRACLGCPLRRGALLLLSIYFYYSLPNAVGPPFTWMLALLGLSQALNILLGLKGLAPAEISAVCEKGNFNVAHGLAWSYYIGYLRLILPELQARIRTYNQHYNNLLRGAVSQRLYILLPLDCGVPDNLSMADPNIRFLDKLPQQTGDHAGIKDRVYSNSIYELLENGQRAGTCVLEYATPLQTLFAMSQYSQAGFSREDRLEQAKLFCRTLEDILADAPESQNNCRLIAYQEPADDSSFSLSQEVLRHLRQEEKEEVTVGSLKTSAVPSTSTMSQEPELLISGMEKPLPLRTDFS
UniProt Q96CG3: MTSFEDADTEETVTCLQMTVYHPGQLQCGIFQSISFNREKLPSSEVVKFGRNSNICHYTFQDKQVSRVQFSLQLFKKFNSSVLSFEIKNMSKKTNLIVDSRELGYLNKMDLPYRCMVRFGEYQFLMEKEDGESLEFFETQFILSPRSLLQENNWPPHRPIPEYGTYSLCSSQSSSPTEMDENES
UniProt Q96EK4, whole entry, looked up: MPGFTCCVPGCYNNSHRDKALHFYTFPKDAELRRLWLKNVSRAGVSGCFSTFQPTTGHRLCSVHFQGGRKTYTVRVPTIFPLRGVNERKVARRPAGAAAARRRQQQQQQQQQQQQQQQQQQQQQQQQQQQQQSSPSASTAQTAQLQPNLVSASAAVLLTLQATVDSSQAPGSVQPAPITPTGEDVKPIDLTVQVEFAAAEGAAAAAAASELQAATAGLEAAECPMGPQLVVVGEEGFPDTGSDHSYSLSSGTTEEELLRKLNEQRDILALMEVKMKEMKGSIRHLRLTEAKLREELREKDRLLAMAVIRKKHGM
UniProt Q9BRN9: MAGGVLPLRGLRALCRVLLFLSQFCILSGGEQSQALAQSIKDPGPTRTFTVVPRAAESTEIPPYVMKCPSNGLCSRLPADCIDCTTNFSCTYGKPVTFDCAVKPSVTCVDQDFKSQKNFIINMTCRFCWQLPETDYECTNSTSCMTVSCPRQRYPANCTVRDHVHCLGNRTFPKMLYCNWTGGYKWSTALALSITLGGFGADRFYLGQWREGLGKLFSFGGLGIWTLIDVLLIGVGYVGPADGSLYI
UniProt Q9H6X4: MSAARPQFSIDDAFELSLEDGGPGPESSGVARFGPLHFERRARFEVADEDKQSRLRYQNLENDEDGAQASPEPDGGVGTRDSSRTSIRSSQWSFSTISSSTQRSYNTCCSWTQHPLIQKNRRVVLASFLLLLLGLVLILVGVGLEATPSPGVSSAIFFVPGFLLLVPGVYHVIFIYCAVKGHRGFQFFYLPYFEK
UniProt Q9UNS1: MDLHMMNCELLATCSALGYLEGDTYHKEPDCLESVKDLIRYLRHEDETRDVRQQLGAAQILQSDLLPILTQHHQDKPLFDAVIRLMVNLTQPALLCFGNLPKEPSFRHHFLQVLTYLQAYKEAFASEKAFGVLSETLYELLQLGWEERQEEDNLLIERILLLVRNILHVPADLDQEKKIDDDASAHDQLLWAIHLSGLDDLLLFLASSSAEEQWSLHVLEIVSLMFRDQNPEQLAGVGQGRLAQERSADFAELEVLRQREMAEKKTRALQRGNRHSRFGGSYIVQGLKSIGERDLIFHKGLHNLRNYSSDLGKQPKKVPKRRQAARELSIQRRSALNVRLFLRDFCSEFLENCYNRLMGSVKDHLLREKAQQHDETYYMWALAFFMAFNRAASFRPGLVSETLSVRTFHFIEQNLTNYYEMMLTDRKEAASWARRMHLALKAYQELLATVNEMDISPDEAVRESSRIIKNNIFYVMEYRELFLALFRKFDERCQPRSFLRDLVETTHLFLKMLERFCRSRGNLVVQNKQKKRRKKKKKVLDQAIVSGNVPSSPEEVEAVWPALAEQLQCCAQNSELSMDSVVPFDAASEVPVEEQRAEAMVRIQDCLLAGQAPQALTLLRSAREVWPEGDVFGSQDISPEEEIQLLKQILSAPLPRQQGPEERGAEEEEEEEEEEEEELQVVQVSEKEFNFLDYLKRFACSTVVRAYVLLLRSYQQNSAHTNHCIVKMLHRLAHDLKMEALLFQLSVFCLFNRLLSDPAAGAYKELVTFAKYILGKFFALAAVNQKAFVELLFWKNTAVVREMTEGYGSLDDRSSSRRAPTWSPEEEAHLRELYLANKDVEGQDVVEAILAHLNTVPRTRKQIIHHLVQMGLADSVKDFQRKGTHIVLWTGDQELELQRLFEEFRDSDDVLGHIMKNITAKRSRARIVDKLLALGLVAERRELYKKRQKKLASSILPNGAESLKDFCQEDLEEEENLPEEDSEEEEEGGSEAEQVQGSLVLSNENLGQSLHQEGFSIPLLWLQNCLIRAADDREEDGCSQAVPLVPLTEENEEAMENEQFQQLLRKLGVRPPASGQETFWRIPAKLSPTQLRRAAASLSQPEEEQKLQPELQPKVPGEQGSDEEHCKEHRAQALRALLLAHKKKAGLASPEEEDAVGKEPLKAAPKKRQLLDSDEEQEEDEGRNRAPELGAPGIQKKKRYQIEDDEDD
UniProt Q24JP5: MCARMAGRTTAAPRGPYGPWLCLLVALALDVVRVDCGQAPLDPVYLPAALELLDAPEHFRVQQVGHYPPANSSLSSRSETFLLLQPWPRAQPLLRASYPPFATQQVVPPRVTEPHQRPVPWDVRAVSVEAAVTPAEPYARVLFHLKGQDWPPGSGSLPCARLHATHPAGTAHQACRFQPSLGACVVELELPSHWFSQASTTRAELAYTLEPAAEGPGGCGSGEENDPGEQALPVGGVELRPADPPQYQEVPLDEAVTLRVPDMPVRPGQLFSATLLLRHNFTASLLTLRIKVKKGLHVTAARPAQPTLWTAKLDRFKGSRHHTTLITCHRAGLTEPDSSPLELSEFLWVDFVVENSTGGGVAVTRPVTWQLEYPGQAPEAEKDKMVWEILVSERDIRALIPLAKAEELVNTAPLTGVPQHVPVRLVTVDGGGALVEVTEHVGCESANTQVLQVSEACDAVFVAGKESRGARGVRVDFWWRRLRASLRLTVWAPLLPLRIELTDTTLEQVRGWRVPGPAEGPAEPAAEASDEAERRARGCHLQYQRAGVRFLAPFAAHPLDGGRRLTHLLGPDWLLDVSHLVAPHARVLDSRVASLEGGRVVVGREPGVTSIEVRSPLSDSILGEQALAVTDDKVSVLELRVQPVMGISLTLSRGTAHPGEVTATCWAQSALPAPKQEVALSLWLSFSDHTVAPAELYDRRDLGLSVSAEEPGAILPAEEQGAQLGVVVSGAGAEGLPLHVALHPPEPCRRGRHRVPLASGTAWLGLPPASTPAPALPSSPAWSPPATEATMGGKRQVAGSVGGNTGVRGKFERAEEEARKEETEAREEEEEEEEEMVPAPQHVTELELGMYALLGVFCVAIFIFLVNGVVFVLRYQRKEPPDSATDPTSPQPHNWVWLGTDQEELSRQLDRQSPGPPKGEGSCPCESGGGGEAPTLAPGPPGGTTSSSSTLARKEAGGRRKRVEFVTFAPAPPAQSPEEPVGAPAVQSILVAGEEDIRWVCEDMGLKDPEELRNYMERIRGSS
UniProt Q8WUY1: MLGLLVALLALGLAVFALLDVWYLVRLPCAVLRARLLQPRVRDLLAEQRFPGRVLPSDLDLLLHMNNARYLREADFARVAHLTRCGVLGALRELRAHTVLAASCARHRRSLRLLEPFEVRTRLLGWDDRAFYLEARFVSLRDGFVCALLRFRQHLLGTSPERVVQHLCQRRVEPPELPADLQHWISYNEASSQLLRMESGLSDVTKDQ

Tests used:
Assay in all cases: log2 fold change, soluble protein after heating vs DMSO (PISA); higher = thermal stabilisation; K562 lysate, 10 uM; active = over 0.2 and 3.5 SD of the protein, either way, in both replicates (recomputed)
alvocidib = compound: CN1CC[C@H](c2c(O)cc(O)c3c(=O)cc(-c4ccccc4Cl)oc23)[C@H](O)C1 [alvocidib]
How it was run: (§1)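 Quantification was by TMTpro 16plex LC-MS/MS with equalised channel sums, applied to the supernatant after 21,000xg for 90 min. Samples were crude K562 extract at 1 mg/mL protein in PBS pH 7.4 with 1 mM MgCl2, treated with 10 μM compound for 30 min, heated for 3 min across 48°C-58°C, pooled and brought to 0.5% NP-40 at 4°C. Values are log-two fold changes in thermal stability relative to solvent controls, from duplicates.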

Tubastatin A = compound: CN1CCc2c(c3ccccc3n2Cc2ccc(C(=O)NO)cc2)C1 [Tubastatin A]
How it was run: as §1

[1] = compound: CNC(=O)C1=CC=CC=C1NC2=NC(=NC=C2Cl)NC3=C(C=C(C=C3)N4CCOCC4)OC
How it was run: as §1

pictilisib = compound: CS(=O)(=O)N1CCN(Cc2cc3nc(-c4cccc5[nH]ncc45)nc(N4CCOCC4)c3s2)CC1 [pictilisib]
How it was run: as §1

crizotinib = compound: C[C@@H](Oc1cc(-c2cnn(C3CCNCC3)c2)cnc1N)c1c(Cl)ccc(F)c1Cl [crizotinib]
How it was run: as §1

[2] = compound: C[C@H](C1=CC=C(C=C1)C(=O)NC2=C3C=CNC3=NC=C2)N
How it was run: as §1

gandotinib = compound: Cc1cc(Nc2cc(CN3CCOCC3)c3nc(C)c(Cc4ccc(Cl)cc4F)n3n2)n[nH]1 [gandotinib]
How it was run: as §1

doramapimod = compound: Cc1ccc(-n2nc(C(C)(C)C)cc2NC(=O)Nc2ccc(OCCN3CCOCC3)c3ccccc23)cc1 [doramapimod]
How it was run: as §1

bafetinib = compound: Cc1ccc(NC(=O)c2ccc(CN3CC[C@H](N(C)C)C3)c(C(F)(F)F)c2)cc1Nc1nccc(-c2cncnc2)n1 [bafetinib]
How it was run: as §1

[3] = compound: Cc1cccc(CC(=O)N2CCc3c2ccc(-c2cn(C)c4ncnc(N)c24)c3F)n1
How it was run: as §1

defactinib = compound: CNC(=O)c1ccc(Nc2ncc(C(F)(F)F)c(NCc3nccnc3N(C)S(C)(=O)=O)n2)cc1 [defactinib]
How it was run: as §1

[4] = compound: CNc1nc(-c2ccc3c(N)n[nH]c3c2)cc(N2C[C@@H](C(=O)NC3CCCCC3)CC[C@H]2C)n1
How it was run: as §1

encorafenib = compound: COC(=O)N[C@@H](C)CNc1nccc(-c2cn(C(C)C)nc2-c2cc(Cl)cc(NS(C)(=O)=O)c2F)n1 [encorafenib]
How it was run: as §1

[5] = compound: COC(=O)[C@H](CCSC)NC(=O)C1=C(C=C(C=C1)NC[C@H](CS)N)C2=CC=CC=C2
How it was run: as §1

alisertib = compound: COc1cc(Nc2ncc3c(n2)-c2ccc(Cl)cc2C(c2c(F)cccc2OC)=NC3)ccc1C(=O)O [alisertib]
How it was run: as §1

gefitinib = compound: COc1cc2ncnc(Nc3ccc(F)c(Cl)c3)c2cc1OCCCN1CCOCC1 [gefitinib]
How it was run: as §1

duvelisib = compound: C[C@H](Nc1ncnc2nc[nH]c12)c1cc2cccc(Cl)c2c(=O)n1-c1ccccc1 [duvelisib]
How it was run: as §1

tozasertib = compound: Cc1cc(Nc2cc(N3CCN(C)CC3)nc(Sc3ccc(NC(=O)C4CC4)cc3)n2)n[nH]1 [tozasertib]
How it was run: as §1

[6] = compound: COc1cc2nc(-c3cc(F)ccc3O)nc(N[C@@H]3CNC[C@H]3C(C)(C)O)c2cc1OC
How it was run: as §1

lapatinib = compound: CS(=O)(=O)CCNCc1ccc(-c2ccc3ncnc(Nc4ccc(OCc5cccc(F)c5)c(Cl)c4)c3c2)o1 [lapatinib]
How it was run: as §1

Row | Target | log2 fold change (alvocidib) | log2 fold change (Tubastatin A) | log2 fold change [1] | log2 fold change (pictilisib) | log2 fold change (crizotinib) | log2 fold change [2] | log2 fold change (gandotinib) | log2 fold change (doramapimod) | log2 fold change (bafetinib) | log2 fold change [3] | log2 fold change (defactinib) | log2 fold change [4] | log2 fold change (encorafenib) | log2 fold change [5] | log2 fold change (alisertib) | log2 fold change (gefitinib) | log2 fold change (duvelisib) | log2 fold change (tozasertib) | log2 fold change [6] | log2 fold change (lapatinib)
1 | TMEM175 (UniProt Q9BSA9) | inactive: -0.23 | inactive: 0.039 | inactive: 0.082 | inactive: -0.027 | inactive: 0.012 | inactive: 0.084 | inactive: -0.388 | inactive: 0.239 | inactive: -0.097 | inactive: 0.201 |  |  |  |  |  |  |  |  |  | 
2 | TK1 (UniProt K7ERV3) | inactive: -0.028 | inactive: 0.118 | inactive: -0.002 | inactive: -0.144 | inactive: 0.075 | inactive: -0.07 | inactive: 0.04 | inactive: 0.041 | inactive: -0.181 | inactive: 0.01 | inactive: -0.024 | inactive: 0.121 | inactive: -0.199 | inactive: 0.006 | inactive: -0.283 | inactive: 0.214 | inactive: -0.021 | active: 0.319 |  | 
3 | TMEM101 (UniProt Q96IK0) | inactive: 0.307 | inactive: -0.016 | inactive: 0.058 | inactive: -0.071 | inactive: -0.023 | inactive: 1.31 | inactive: -0.12 | inactive: 0.042 | inactive: 0.033 | inactive: 0.115 |  | inactive: 0.121 | inactive: -0.011 | inactive: -0.041 | inactive: 0.028 | inactive: 0.04 | inactive: -0.093 | inactive: 0.06 | inactive: 0.148 | inactive: -0.048
4 | TMEM141 (UniProt Q96I45) | inactive: -0.045 | inactive: -0.121 | inactive: -0.073 | inactive: 0 | inactive: 0.016 | inactive: -0.016 | inactive: 0.087 | inactive: -0.082 | inactive: 0.009 | inactive: 0.135 | inactive: 0.2 | inactive: 0.105 |  |  | inactive: -0.079 | inactive: 0.077 | inactive: 0.032 |  | inactive: -0.036 | inactive: 0.084
5 | TGFBRAP1 (UniProt Q8WUH2) | inactive: -0.026 | inactive: -0.153 | inactive: 0 | inactive: -0.021 | inactive: -0.034 | inactive: -0.001 | inactive: -0.138 | inactive: 0.028 | inactive: -0.056 | inactive: -0.007 | inactive: 0.005 | inactive: -0.012 | inactive: -0.015 | inactive: -0.174 | inactive: 0.011 | inactive: -0.025 | inactive: -0.03 | inactive: 0.052 | inactive: -0.025 | inactive: -0.029
6 | TIMM21 (UniProt Q9BVV7) | inactive: -0.039 | inactive: -0.004 | inactive: 0.045 | inactive: -0.041 | inactive: -0.07 | inactive: -0.065 | inactive: 0.064 | inactive: 0.052 | inactive: -0.046 | inactive: 0.076 | inactive: -0.016 | inactive: -0.087 | inactive: 0.056 | inactive: 0.027 | inactive: 0.07 | inactive: 0.005 | inactive: 0.023 | inactive: 0.003 | inactive: -0.023 | inactive: -0.028
7 | TLE3 isoform 5 (UniProt Q04726) | inactive: -0.153 | inactive: -0.06 | inactive: 0.004 | inactive: 0.127 | inactive: 0.001 | inactive: -0.409 | inactive: -0.062 | inactive: -0.061 | inactive: 0.084 | inactive: 0.084 |  | inactive: 0.011 | inactive: -0.02 | inactive: 0.002 | inactive: 0 | inactive: 0.009 | inactive: 0.031 | inactive: -0.089 | inactive: 0.008 | inactive: 0.011
8 | TKT, A0A0B4J1R6 | inactive: -0.121 | inactive: 0.092 | inactive: -0.12 |  | inactive: -0.228 | inactive: -0.535 | inactive: 0.301 | inactive: 0.274 |  | inactive: 0.203 |  | inactive: -0.141 |  |  | inactive: 0.164 | inactive: 0.299 | inactive: 0.207 |  | inactive: 0.011 | inactive: -0.095
9 | TMEM173 (UniProt Q86WV6) | inactive: -0.04 | inactive: -0.1 | inactive: -0.029 | inactive: -0.001 | inactive: 0.023 | inactive: -0.03 | inactive: -0.114 | inactive: -0.107 | inactive: 0.03 | inactive: 0.028 | inactive: 0.04 | inactive: 0.096 | inactive: 0.062 | inactive: -0.118 | inactive: -0.135 | inactive: 0.073 | inactive: -0.041 | inactive: 0.031 | inactive: -0.041 | inactive: -0.007
10 | TMEM167B (UniProt Q9NRX6) | inactive: -0.167 | inactive: -0.028 | inactive: 0.06 | inactive: -0.034 | inactive: 0.006 | active: -0.339 | inactive: 0.133 | inactive: -0.083 | inactive: -0.075 | inactive: 0.128 | inactive: 0.015 |  | inactive: 0.026 | inactive: -0.022 | inactive: 0.012 | inactive: 0.032 |  | inactive: -0.003 | inactive: 0.032 | inactive: -0.045
11 | TIFA (UniProt Q96CG3) | inactive: 0.01 | inactive: 0.091 | inactive: -0.079 |  | inactive: -0.045 | inactive: -0.002 | inactive: 0.039 | inactive: 0.012 |  | inactive: 0.159 |  |  | inactive: 0.019 | inactive: -0.051 |  |  |  | inactive: 0.027 |  | 
12 | TJP1 (UniProt G3V1L9) | inactive: -0.09 | inactive: -0.042 | inactive: 0.124 | inactive: 0.157 | inactive: 0.068 | inactive: 0.027 | inactive: 0.071 | inactive: -0.209 | inactive: -0.047 | inactive: 0.059 | inactive: 0.241 | inactive: 0.119 |  |  | inactive: -0.079 | inactive: -0.215 | inactive: -0.042 |  |  | 
13 | THAP11 (UniProt Q96EK4) | inactive: -0.102 | inactive: -0.025 | inactive: 0.139 | inactive: 0.088 |  | inactive: 0.078 | inactive: 0.169 |  | inactive: 0.057 | inactive: 0.024 | inactive: 0.029 | inactive: 0.096 | inactive: 0.101 | inactive: 0.052 | inactive: 0.044 | inactive: 0.031 | inactive: -0.001 | inactive: -0.024 | inactive: 0.099 | inactive: 0.051
14 | TM2D3 (UniProt Q9BRN9) | inactive: -0.291 | inactive: -0.125 | inactive: 0.008 | inactive: 0.069 |  | active: -0.836 | inactive: 0.329 |  | inactive: 0.048 | inactive: 0.348 |  |  | inactive: -0.116 | inactive: -0.116 |  |  |  | inactive: -0.075 |  | 
15 | THOC2 (UniProt Q8NI27) | inactive: -0.015 | inactive: -0.068 | inactive: 0.02 | inactive: -0.008 | inactive: -0.022 | inactive: -0.011 | inactive: -0.044 | inactive: -0.009 | inactive: -0.034 | inactive: 0.057 | inactive: 0.005 | inactive: 0.005 | inactive: -0.012 | inactive: 0.081 | inactive: 0.006 | inactive: 0.002 | inactive: 0.014 | inactive: -0.008 | inactive: -0.022 | inactive: -0.017
16 | TMEM134 (UniProt Q9H6X4) | inactive: -0.193 | inactive: -0.079 | inactive: -0.109 |  | inactive: -0.106 | inactive: -0.064 | inactive: -0.086 | inactive: -0.026 |  | inactive: -0.199 |  | inactive: 0.029 |  |  |  |  | inactive: 0.278 |  | inactive: -0.214 | inactive: -0.081
17 | TIMELESS (UniProt Q9UNS1) | inactive: -0.017 | inactive: -0.149 | inactive: 0.031 | inactive: -0.017 | inactive: -0.077 | inactive: -0.042 | inactive: -0.12 | inactive: -0.02 | inactive: -0.082 | inactive: 0.032 | inactive: 0 | inactive: -0.039 | inactive: 0.039 | inactive: 0.105 | inactive: -0.011 | inactive: 0.017 | inactive: -0.029 | inactive: -0.026 | inactive: 0.049 | inactive: 0.017
18 | TMEM132A isoform 2 (UniProt Q24JP5) | inactive: -0.381 | inactive: 0.136 | inactive: -0.097 |  | inactive: -0.237 | inactive: -0.084 | inactive: 0.077 | inactive: -0.163 |  | inactive: 0.002 |  |  | inactive: -0.064 | inactive: -0.042 |  |  |  | inactive: 0.042 | active: 1.16 | inactive: -0.172
19 | THEM6 (UniProt Q8WUY1) | inactive: -0.019 | inactive: 0.009 | inactive: -0.032 | inactive: -0.007 | inactive: 0.048 | inactive: 0.003 | inactive: -0.003 | inactive: 0.096 | inactive: -0.046 | inactive: -0.035 | inactive: 0.066 | inactive: 0.05 | inactive: 0.051 | inactive: -0.002 | inactive: 0.037 | inactive: -0.048 | inactive: 0.085 | inactive: -0.07 | inactive: 0 | inactive: 0.016

As entered above.
Value for THEM6 (UniProt Q8WUY1) under log2 fold change (bafetinib): inactive: -0.046
Value for TJP1 (UniProt G3V1L9) under log2 fold change (Tubastatin A): inactive: -0.042
